# Measured values reported in paper PMC8595642.
# Amino acid sequences for entries named in this document (tags omitted).
# UniProt P22736: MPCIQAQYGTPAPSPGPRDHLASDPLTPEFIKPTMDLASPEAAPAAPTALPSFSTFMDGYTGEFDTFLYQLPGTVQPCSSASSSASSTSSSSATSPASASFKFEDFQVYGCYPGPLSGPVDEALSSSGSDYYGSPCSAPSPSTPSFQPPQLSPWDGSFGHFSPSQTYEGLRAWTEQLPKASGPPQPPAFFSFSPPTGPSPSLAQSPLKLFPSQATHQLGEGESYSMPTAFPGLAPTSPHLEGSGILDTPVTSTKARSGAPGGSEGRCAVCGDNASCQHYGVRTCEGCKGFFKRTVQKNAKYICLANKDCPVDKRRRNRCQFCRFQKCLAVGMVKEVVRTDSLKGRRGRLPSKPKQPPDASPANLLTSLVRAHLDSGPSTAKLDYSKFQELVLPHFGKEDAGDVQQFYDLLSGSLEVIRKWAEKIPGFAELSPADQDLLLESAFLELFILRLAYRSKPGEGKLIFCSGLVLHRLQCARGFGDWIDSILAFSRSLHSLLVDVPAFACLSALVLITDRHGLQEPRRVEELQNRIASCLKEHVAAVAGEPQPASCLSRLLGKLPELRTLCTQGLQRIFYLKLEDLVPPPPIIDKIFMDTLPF
# UniProt Q13009: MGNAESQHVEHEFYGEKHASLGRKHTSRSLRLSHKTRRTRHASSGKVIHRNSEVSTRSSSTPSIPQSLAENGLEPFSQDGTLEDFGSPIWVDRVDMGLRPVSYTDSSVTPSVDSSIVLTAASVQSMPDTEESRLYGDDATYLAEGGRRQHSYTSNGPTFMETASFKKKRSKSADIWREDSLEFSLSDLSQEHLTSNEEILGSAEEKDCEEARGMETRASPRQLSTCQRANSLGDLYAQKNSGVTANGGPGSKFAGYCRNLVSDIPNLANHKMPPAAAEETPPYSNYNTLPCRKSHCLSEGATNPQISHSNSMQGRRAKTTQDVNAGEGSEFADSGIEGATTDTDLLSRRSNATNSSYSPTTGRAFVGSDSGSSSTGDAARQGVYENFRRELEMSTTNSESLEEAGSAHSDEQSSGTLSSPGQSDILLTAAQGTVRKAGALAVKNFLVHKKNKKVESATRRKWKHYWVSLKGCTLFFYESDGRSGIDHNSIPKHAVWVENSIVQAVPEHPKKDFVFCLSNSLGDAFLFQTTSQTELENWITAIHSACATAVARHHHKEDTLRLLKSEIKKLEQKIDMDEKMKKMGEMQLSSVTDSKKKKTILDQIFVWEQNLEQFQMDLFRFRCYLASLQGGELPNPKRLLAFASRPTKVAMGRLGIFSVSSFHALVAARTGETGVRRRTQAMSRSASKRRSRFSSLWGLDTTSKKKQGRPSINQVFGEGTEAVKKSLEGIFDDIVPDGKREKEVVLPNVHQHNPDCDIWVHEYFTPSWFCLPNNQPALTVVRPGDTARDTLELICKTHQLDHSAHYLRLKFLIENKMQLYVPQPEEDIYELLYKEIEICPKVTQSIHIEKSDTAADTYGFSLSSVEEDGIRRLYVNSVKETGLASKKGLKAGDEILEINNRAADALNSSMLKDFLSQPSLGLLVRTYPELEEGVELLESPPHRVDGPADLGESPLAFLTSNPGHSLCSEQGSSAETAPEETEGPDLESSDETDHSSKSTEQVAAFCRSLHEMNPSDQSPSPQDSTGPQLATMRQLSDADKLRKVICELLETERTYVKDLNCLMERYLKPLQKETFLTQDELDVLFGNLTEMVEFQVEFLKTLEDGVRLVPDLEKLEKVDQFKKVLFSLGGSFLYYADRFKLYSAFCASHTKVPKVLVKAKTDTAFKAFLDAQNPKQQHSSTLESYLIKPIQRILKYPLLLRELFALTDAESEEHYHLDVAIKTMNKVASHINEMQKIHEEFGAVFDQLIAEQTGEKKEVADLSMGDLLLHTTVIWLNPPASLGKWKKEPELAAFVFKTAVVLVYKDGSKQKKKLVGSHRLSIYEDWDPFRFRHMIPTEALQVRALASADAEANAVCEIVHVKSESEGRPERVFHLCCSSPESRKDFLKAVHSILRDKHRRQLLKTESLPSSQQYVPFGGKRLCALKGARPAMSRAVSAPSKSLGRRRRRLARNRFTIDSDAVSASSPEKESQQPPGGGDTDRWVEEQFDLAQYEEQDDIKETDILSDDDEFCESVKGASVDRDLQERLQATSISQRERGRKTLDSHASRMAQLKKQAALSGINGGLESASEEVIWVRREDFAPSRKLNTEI
# No constants are given. Whether binding was seen depends on the method and setting. In cells and extracts the contact can be indirect. Some results given as binding are weak or reduced against the parent protein; the word gives no strength.
# Experiments:
# [1] = target: Myc-tagged Nur77 (doxycycline-inducible, H446 cells) (UniProt P22736); assay: co-IP; nuclear fractions of H446 cells co-expressing doxycycline-induced Myc-Nur77 and exogenous TIAM1; Nur77 precipitated with a Myc-tag nanobody (Myc-Trap agarose); blot for TIAM1
# [2] = target: Myc-tagged full-length Nur77 (HEK293T cells) (UniProt P22736); assay: co-IP; HEK293T cells transfected for 48 h, whole cell lysate (IP lysis buffer, 1% Triton X-100, 150 mM NaCl), Myc-agarose beads 1 h at 4°C, five washes, immunoblot; for NLS-TIAM1 cells treated with DMSO or 50 uM NSC-23766 overnight
# [3] = target: Myc-tagged full-length Nur77 (HEK293T cells) (UniProt P22736); assay: co-IP; nuclear extracts of HEK293T cells expressing NLS-TIAM1-WT or NLS-TIAM1-4A together with Myc-Nur77; Myc-Nur77 precipitated; immunoblot
binding [1],binding [2],binding [3],Substance
binds,–,–,Exogenous full-length TIAM1 (H446 cells) (from UniProt Q13009 1-1591)
–,binds,binds,"TIAM1 tagged with a nuclear localization sequence, wild type (from UniProt Q13009 1-1591)"
